Reference: PubChem BioAssay AID1224830 (NIAID, 2016)

Aim: 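Regulators of TLR4 signalling towards TNF-alpha in macrophage-like cells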 (primary screen)
Cells: human THP-1 monocytic leukaemia cells, TNF dual-luciferase reporter clone, PMA-differentiated to macrophage-like cells
Reagents: siRNA pool against human genes, 50 nM
Time to read-out: LPS for 4 h, given about 3 days after siRNA transfection
Conditions: bacterial LPS (TLR4 ligand), 10 ng/ml
Detection: 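TNF firefly reporter luminescence divided by renilla, normalised to the plate median, then turned into a robust z-score for each replicate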
Reading the numbers: TNF reporter robust z-score: higher = stronger TNF reporter response to LPS
Hit rule: 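Each well counts as active if its z-score is over 2.8 or under -1.5; controls are left without a call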
In all, the deposit lists about 18,000 reagents; this is a part drawn at random. About 2,900 of all reagents (16%) count as active. 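Calls are made per well; low scores hint the gene aids the LPS response, high scores that it dampens it.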 Entries without a mark were called inactive. Repeated entries: four replicate wells of each siRNA pool. Reagent sequences are not shown.

| gene knocked down | TNF reporter robust z-score |
| --- | --- |
| AVPR2 | 0.59 |
| AVPR2 | 1.44 |
| AVPR2 | 1.82 |
| AVPR2 | 0.73 |
| ZP2 | 0.21 |
| ZP2 | 0.29 |
| ZP2 | 1.75 |
| ZP2 | 3.31 (active) |
| EP300 | -0.22 |
| EP300 | -0.82 |
| EP300 | -0.41 |
| EP300 | 0.36 |
| KLHL5 | -0.77 |
| KLHL5 | -0.62 |
| KLHL5 | -0.94 |
| KLHL5 | -0.89 |
| ZNF142 | -0.83 |
| ZNF142 | -0.68 |
| ZNF142 | 0.01 |
| ZNF142 | -0.35 |
| COQ8A | 0.63 |
| COQ8A | -0.33 |
| COQ8A | 0 |
| COQ8A | 0.52 |
| CLN8 | -0.2 |
| CLN8 | -0.04 |
| CLN8 | 1.26 |
| CLN8 | 0.37 |
| PPFIA2 | -0.27 |
| PPFIA2 | 0.98 |
| PPFIA2 | -0.05 |
| PPFIA2 | -0.11 |
| CAMK2B | -0.52 |
| CAMK2B | 0.43 |
| CAMK2B | 0.1 |
| CAMK2B | -0.04 |
| SCN3B | 2 |
| SCN3B | -0.16 |
| SCN3B | 0.56 |
| UBXN2A | 4.12 (active) |
| UBXN2A | 5.13 (active) |
| UBXN2A | 5.21 (active) |
| UBXN2A | 3.55 (active) |
| NXPE1 | 0.43 |
| NXPE1 | 0.71 |
| NXPE1 | -0.1 |
| NXPE1 | 0.76 |
| SH3BP2 | 0.6 |
| SH3BP2 | -1.07 |
| SH3BP2 | -0.93 |
| SH3BP2 | -0.33 |
| APOC3 | -0.27 |
| APOC3 | 0.29 |
| APOC3 | -0.37 |
| APOC3 | -0.17 |
| KCNF1 | -0.89 |
| KCNF1 | -0.52 |
| KCNF1 | -0.85 |
| OR56B1 | 0.1 |
| OR56B1 | -0.51 |
| OR56B1 | -0.79 |
| OR56B1 | 0.31 |
| CCDC167 | 0.01 |
| CCDC167 | -0.23 |
| CCDC167 | -0.2 |
| CCDC167 | -0.77 |
| COX20 | -0.07 |
| COX20 | -0.82 |
| COX20 | -1.13 |
| COX20 | 0.52 |
| FUT9 | -1.28 |
| FUT9 | -0.28 |
| FUT9 | 0.73 |
| FUT9 | 3.59 (active) |
| GPRC5D | -1.15 |
| GPRC5D | -0.08 |
| GPRC5D | -1.16 |
| GPRC5D | -0.74 |
| MFF | -0.83 |
| MFF | 0.47 |
| MFF | 0.18 |
| MFF | -0.86 |
| NUP205 | 2.42 |
| NUP205 | 0.59 |
| NUP205 | 0.38 |
| NUP205 | 0.27 |
| IQGAP2 | 0.09 |
| IQGAP2 | 0.76 |
| IQGAP2 | 0.51 |
| IQGAP2 | 0.44 |
| IP6K1 | -1.35 |
| IP6K1 | 0.17 |
| IP6K1 | 0.46 |
| IP6K1 | -0.25 |
| AKIP1 | 1.72 |
| AKIP1 | 1.66 |
| AKIP1 | -0.05 |
| AKIP1 | 0.24 |
| PRELID1 | 0.35 |
| PRELID1 | 1.33 |
| PRELID1 | 0.01 |
| PRELID1 | 1.45 |
| OR52K2 | -0.4 |
| OR52K2 | -0.87 |
| OR52K2 | -1.05 |
| OR52K2 | -1.09 |
| GRIK5 | 0.01 |
| GRIK5 | 0.19 |
| GRIK5 | -1.09 |
| GRIK5 | -0.38 |

Called active (from the list above):
| gene knocked down | TNF reporter robust z-score |
| --- | --- |
| ZP2 | 3.31 (active) |
| UBXN2A | 4.12 (active) |
| UBXN2A | 5.13 (active) |
| UBXN2A | 5.21 (active) |
| UBXN2A | 3.55 (active) |
| FUT9 | 3.59 (active) |
